In PMC6300487 one finds binding data, which are given here for six molecules.

B1: ADH7A1 (protein, UniProt P49419 27-539)
chain: AFMSTLLINQPQYAWLKELGLREENEGVYNGSWGGRGEVITTYCPANNEPIARVRQASVADYEETVKKAREAWKIWADIPAPKRGEIVRQIGDALREKIQVLGSLVSLEMGKILVEGVGEVQEYVDICDYAVGLSRMIGGPILPSERSGHALIEQWNPVGLVGIITAFNFPVAVYGWNNAIAMICGNVCLWKGAPTTSLISVAVTKIIAKVLEDNKLPGAICSLTCGGADIGTAMAKDERVNLLSFTGSTQVGKQVGLMVQERFGRSLLELGGNNAIIAFEDADLSLVVPSALFAAVGTAGQRCTTARRLFIHESIHDEVVNRLKKAYAQIRVGNPWDPNVLYGPLHTKQAVSMFLGAVEEAKKEGGTVVYGGKVMDRPGNYVEPTIVTGLGHDASIAHTETFAPILYVFKFKNEEEVFAWNNEVKQGLSSSIFTKDLGRIFRWLGPKGSDCGIVNVNIPTSGAEIGGAFGGEKHTGGGRESGSDAWKQYMRRSTCTINYSKDLPLAQGIKFQ
B2: dihydrolipoamide dehydrogenase (PDC component E3) (protein, UniProt P09622 36-509)
chain: ADQPIDADVTVIGSGPGGYVAAIKAAQLGFKTVCIEKNETLGGTCLNVGCIPSKALLNNSHYYHMAHGKDFASRGIEMSEVRLNLDKMMEQKSTAVKALTGGIAHLFKQNKVVHVNGYGKITGKNQVTATKADGGTQVIDTKNILIATGSEVTPFPGITIDEDTIVSSTGALSLKKVPEKMVVIGAGVIGVELGSVWQRLGADVTAVEFLGHVGGVGIDMEISKNFQRILQKQGFKFKLNTKVTGATKKSDGKIDVSIEAASGGKAEVITCDVLLVCIGRRPFTKNLGLEELGIELDPRGRIPVNTRFQTKIPNIYAIGDVVAGPMLAHKAEDEGIICVEGMAGGAVHIDYNCVPSVIYTHPEVAWVGKSEEQLKEEGIEYKVGKFPFAANSRAKTNADTDGMVKILGQKSTDRVLGAHILGPGAGEMVNEAALALEYGASCEDIARVCHAHPTLSEAFREANLAASFGKSINF
B3: aldehyde dehydrogenase 18 family member A1 (protein, UniProt P54886 1-795)
chain: MLSQVYRCGFQPFNQHLLPWVKCTTVFRSHCIQPSVIRHVRSWSNIPFITVPLSRTHGKSFAHRSELKHAKRIVVKLGSAVVTRGDECGLALGRLASIVEQVSVLQNQGREMMLVTSGAVAFGKQRLRHEILLSQSVRQALHSGQNQLKEMAIPVLEARACAAAGQSGLMALYEAMFTQYSICAAQILVTNLDFHDEQKRRNLNGTLHELLRMNIVPIVNTNDAVVPPAEPNSDLQGVNVISVKDNDSLAARLAVEMKTDLLIVLSDVEGLFDSPPGSDDAKLIDIFYPGDQQSVTFGTKSRVGMGGMEAKVKAALWALQGGTSVVIANGTHPKVSGHVITDIVEGKKVGTFFSEVKPAGPTVEQQGEMARSGGRMLATLEPEQRAEIIHHLADLLTDQRDEILLANKKDLEEAEGRLAAPLLKRLSLSTSKLNSLAIGLRQIAASSQDSVGRVLRRTRIAKNLELEQVTVPIGVLLVIFESRPDCLPQVAALAIASGNGLLLKGGKEAAHSNRILHLLTQEALSIHGVKEAVQLVNTREEVEDLCRLDKMIDLIIPRGSSQLVRDIQKAAKGIPVMGHSEGICHMYVDSEASVDKVTRLVRDSKCEYPAACNALETLLIHRDLLRTPLFDQIIDMLRVEQVKIHAGPKFASYLTFSPSEVKSLRTEYGDLELCIEVVDNVQDAIDHIHKYGSSHTDVIVTEDENTAEFFLQHVDSACVFWNASTRFSDGYRFGLGAEVGISTSRIHARGPVGLEGLLTTKWLLRGKDHVVSDFSEHGSLKYLHENLPIPQRNTN
B4: Vesicular, Overexpressed in Cancer, Pro-survival Protein 1 (protein, UniProt Q96AW1 23-172)
chain: KKHCWYFEGLYPTYYICRSYEDCCGSRCCVRALSIQRLWYFWFLLMMGVLFCCGAGFFIRRRMYPPPLIEEPAFNVSYTRQPPNPGPGAQQPGPPYYTDPGGPGMNPVGNSMAMAFQVPPNSPQGSVACPPPPAYCNTPPPPYEQVVKAK
B5: ALDH1B1 (protein, UniProt P30837 18-517)
chain: RYSSAAALPSPILNPDIPYNQLFINNEWQDAVSKKTFPTVNPTTGEVIGHVAEGDRADVDRAVKAAREAFRLGSPWRRMDASERGRLLNRLADLVERDRVYLASLETLDNGKPFQESYALDLDEVIKVYRYFAGWADKWHGKTIPMDGQHFCFTRHEPVGVCGQIIPWNFPLVMQGWKLAPALATGNTVVMKVAEQTPLSALYLASLIKEAGFPPGVVNIITGYGPTAGAAIAQHVDVDKVAFTGSTEVGHLIQKAAGDSNLKRVTLELGGKSPSIVLADADMEHAVEQCHEALFFNMGQCCCAGSRTFVEESIYNEFLERTVEKAKQRKVGNPFELDTQQGPQVDKEQFERVLGYIQLGQKEGAKLLCGGERFGERGFFIKPTVFGGVQDDMRIAKEEIFGPVQPLFKFKKIEEVVERANNTRYGLAAAVFTRDLDKAMYFTQALQAGTVWVNTYNIVTCHTPFGGFKESGNGRELGEDGLKAYTEVKTVTIKVPQKNS
B6: SEC23-interacting protein (protein, UniProt Q9Y6Y8 1-1000)
chain: MAERKPNGGSGGASTSSSGTNLLFSSSATEFSFNVPFIPVTQASASPASLLLPGEDSTDVGEEDSFLGQTSIHTSAPQTFSYFSQVSSSSDPFGNIGQSPLTTAATSVGQSGFPKPLTALPFTTGSQDVSNAFSPSISKAQPGAPPSSLMGINSYLPSQPSSLPPSYFGNQPQGIPQPGYNPYRHTPGSSRANPYIAPPQLQQCQTPGPPAHPPPSGPPVQMYQMPPGSLPPVPSSVQSPAQQQVPARPGAPSVQVPSPFLLQNQYEPVQPHWFYCKEVEYKQLWMPFSVFDSLNLEEIYNSVQPDPESVVLGTDGGRYDVYLYDRIRKAAYWEEEPAEVRRCTWFYKGDTDSRFIPYTEEFSEKLEAEYKKAVTTNQWHRRLEFPSGETIVMHNPKVIVQFQPSSVPDEWGTTQDGQTRPRVVKRGIDDNLDEIPDGEMPQVDHLVFVVHGIGPVCDLRFRSIIECVDDFRVVSLKLLRTHFKKSLDDGKVSRVEFLPVHWHSSLGGDATGVDRNIKKITLPSIGRFRHFTNETLLDILFYNSPTYCQTIVEKVGMEINHLHALFMSRNPDFKGGVSVAGHSLGSLILFDILSNQKDLNLSKCPGPLAVANGVVKQLHFQEKQMPEEPKLTLDESYDLVVENKEVLTLQETLEALSLSEYFSTFEKEKIDMESLLMCTVDDLKEMGIPLGPRKKIANFVEHKAAKLKKAASEKKAVAATSTKGQEQSAQKTKDMASLPSESNEPKRKLPVGACVSSVCVNYESFEVGAGQVSVAYNSLDFEPEIFFALGSPIAMFLTIRGVDRIDENYSLPTCKGFFNIYHPLDPVAYRLEPMIVPDLDLKAVLIPHHKGRKRLHLELKESLSRMGSDLKQGFISSLKSAWQTLNEFARAHTSSTQLQEELEKVANQIKEEEEKQVVEAEKVVESPDFSKDEDYLGKVGMLNGGRRIDYVLQEKPIESFNEYLFALQSHLCYWESEDTALLLLKEIYRTMNISPEQPQH

These are yes or no findings as the source states them, for the method shown. Binding seen in cells or lysates may run through a third protein. A yes stands for co-enrichment or nearness to the bait. Other partners may have been found. Sequences can lack the tags named with a protein.

The assay concerns the target T1, SFB-tagged WWOX (WW domain-containing oxidoreductase) (human) (UniProt Q9NZC7).
T1 sequence: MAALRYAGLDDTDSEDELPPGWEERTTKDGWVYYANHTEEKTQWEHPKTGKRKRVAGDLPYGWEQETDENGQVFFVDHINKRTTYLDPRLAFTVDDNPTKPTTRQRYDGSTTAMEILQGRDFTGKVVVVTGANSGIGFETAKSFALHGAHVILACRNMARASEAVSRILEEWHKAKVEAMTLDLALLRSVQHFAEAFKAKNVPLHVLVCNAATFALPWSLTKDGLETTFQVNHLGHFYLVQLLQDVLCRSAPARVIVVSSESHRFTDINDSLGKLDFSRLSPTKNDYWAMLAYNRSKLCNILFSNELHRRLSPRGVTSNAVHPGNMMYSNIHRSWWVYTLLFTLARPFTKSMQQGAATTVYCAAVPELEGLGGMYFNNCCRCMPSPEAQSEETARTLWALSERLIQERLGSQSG
In words: affinity purification with mass spectrometry; tandem affinity purification from lysate (NETN buffer) of HEK293T cells stably expressing C-terminally SFB-tagged WWOX: streptavidin beads, elution with 2 mg/ml biotin, then S protein beads; LC-MS/MS; two replicates; hits filtered by MUSE interaction score and CRAPome frequency.
Regarding B1, the binding result is listed as “binds”.

Turning to B2, the binding result is “binds”.

With B3, the binding result was “binds”.

Turning to B4, the binding entry is given as “binds”.

Turning to B5, the binding entry is “binds”.

B6: the binding entry is reported as “binds”.
